The list shows a part of the results.

Sequences of proteins named here, by UniProt entry; tags and fusion partners are left off.
UniProt Q0JBA9, entry or part of it: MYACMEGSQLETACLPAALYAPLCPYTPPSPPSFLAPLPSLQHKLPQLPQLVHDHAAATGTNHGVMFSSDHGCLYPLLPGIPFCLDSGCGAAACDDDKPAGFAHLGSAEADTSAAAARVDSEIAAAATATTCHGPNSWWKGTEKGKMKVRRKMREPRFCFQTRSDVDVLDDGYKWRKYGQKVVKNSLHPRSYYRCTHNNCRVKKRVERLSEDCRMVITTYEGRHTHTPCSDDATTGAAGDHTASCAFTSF

Binding signal data for 42 sequences are collected here from publication PMC7819943, “Rice protein-binding microarrays: a tool to detect cis-acting elements near promoter regions in rice”.

This assay has as its target OsWRKY34 (Oryza sativa, UniProt Q0JBA9 1-250). As to the kind of experiment: protein-binding microarray (RPBM); PBS, 2% BSA, 51.3 ng/ul salmon testes DNA, 50 uM zinc acetate, 200 nM TF, 25 C, 1 h; high values mean tight binding. To be noted: protein: recombinant; tags: N-terminal polyhistidine and DsRed monomer fusion (pET32a); label: CyDye5-dUTP incorporated in the synthesized complementary strand; 3' TTTTT single-stranded linker to array surface; dsDNA, one strand shown. The method in brief:
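The binding signal for each feature is its fluorescence intensity in arbitrary units. An Axon 4000B scanner was used to read a custom Agilent array that had been made double-stranded with Cy5-dUTP primer extension, blocked with 2% BSA, incubated at 25 °C for 1 h with 200 nM protein in PBS, 2% BSA, salmon testes DNA and 50 µM zinc acetate, and washed. The protein was an N-terminal polyhistidine–DsRed transcription factor fusion from E. coli BL21-CodonPlus, purified on Ni–NTA.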
On to “TGCTAGGTCACATTTGTCCTTCCGTTGGTTCCATTCCTACCGGAGTCACCTAGTGCAG”, for which the binding signal is 8280 fluorescence intensity (a.u.).

Regarding “TCCTGAAGCATATGTTGTATTCTCTTATGATGTTACCTTTCGGAGTCACCTAGTGCAG”, the binding signal was 8200 fluorescence intensity (a.u.). To “TCTCATATCGTGTTCGGGCCCGTCTGCACTCTCCACTTCCCGGAGTCACCTAGTGCAG” belongs 8910 fluorescence intensity (a.u.); to “ATAAGTTCACCTGACATTCCTCAATTTTACGTCTGATCCCCGGAGTCACCTAGTGCAG”, 9930 fluorescence intensity (a.u.); to “CCCTGTACAATATACGTTGCTGAAATTTGCAAGCCATGCCCGGAGTCACCTAGTGCAG”, 8480 fluorescence intensity (a.u.).

“CTTCTTTGTCTTTATCAACTCTTACTTCAAAAACCTTTTACGGAGTCACCTAGTGCAG”: the binding signal is 9000 fluorescence intensity (a.u.). As to “GCCGCCGCCGCCGCCGCCGCCATTTTCCTTTTAATTATTTCGGAGTCACCTAGTGCAG”, the binding signal was 8160 fluorescence intensity (a.u.). To “GTATGACGCCGTTGACTTTTCGATCAACGTTTGACTATTTCGGAGTCACCTAGTGCAG” belongs 25300 fluorescence intensity (a.u.); to “CGCCGCCGCCGCCGCCGCCGCCGCTGCCCGTCCCCGCAACCGGAGTCACCTAGTGCAG”, 8940 fluorescence intensity (a.u.); to “GCAATAGTTGGATGGGGAAGTTCTTAGGCACTGTCACATACGGAGTCACCTAGTGCAG”, 8620 fluorescence intensity (a.u.). With “ACACATCACCTTTTATCTCATCACATGTCTTTGTACTATTCGGAGTCACCTAGTGCAG” the figure was 8300 fluorescence intensity (a.u.). Regarding “AGTACTATTTACTAATGCTGTCCCGTTTTACCCACCATCGCGGAGTCACCTAGTGCAG”, the binding signal was 12300 fluorescence intensity (a.u.). As for “CTCTTCCACACAACACGCCACGCCACGCCTCGCCGCGCCGCGGAGTCACCTAGTGCAG”, the binding signal is 8430 fluorescence intensity (a.u.).

For “GCTGTTGACTTTTTCTCACGTGATTGACCTTTCGTCTTATCGGAGTCACCTAGTGCAG”, the binding signal was 28400 fluorescence intensity (a.u.).

Regarding “TAATATTCGTGCGTGGGGTTGATCGAAATAGACTGAACTCCGGAGTCACCTAGTGCAG”, the binding signal is 9390 fluorescence intensity (a.u.).

With “ATATACTTTCATGTACACATATAGTTTTACATATTTTACACGGAGTCACCTAGTGCAG”, the binding signal was 8310 fluorescence intensity (a.u.). With “CACTAAACCAAACATGTTATAATCGTAAGCACATCTGACACGGAGTCACCTAGTGCAG” the figure was 8530 fluorescence intensity (a.u.); with “GATAAGCGTAAGTGGGCCAGGCTTTCCATTTGCCAGCCGGCGGAGTCACCTAGTGCAG”, 8350 fluorescence intensity (a.u.). To “GCCGCGCGCTCCCGCTCCTGTTGCTGAGTCCAAGTCCACACGGAGTCACCTAGTGCAG” belongs 11800 fluorescence intensity (a.u.); to “CTTCTTCTTCTTCTTCTTCTTCTTCTTCTTCTTCTTCTTCCGGAGTCACCTAGTGCAG”, 9450 fluorescence intensity (a.u.); to “AGCTTCCACTGCTCGCATCGCTTGTCATCATCATCAGTTCCGGAGTCACCTAGTGCAG”, 8240 fluorescence intensity (a.u.). As for “AGGAGGGGAGGCGCGGCGGAGGAGAAGAGGTGGGGATGGACGGAGTCACCTAGTGCAG”, the binding signal is 10000 fluorescence intensity (a.u.). With “CCATCATCATTCGTGTCCTTTCCATTCTCTCCTGAAATCCCGGAGTCACCTAGTGCAG” the figure was 8430 fluorescence intensity (a.u.); with “CCAATTACACCTTAGCATGCACACATTCTCCCATACTGCACGGAGTCACCTAGTGCAG”, 8720 fluorescence intensity (a.u.); with “TGGTTGTACAATTTTCATGTTATTTGGAAAAATAGCCTTACGGAGTCACCTAGTGCAG”, 8050 fluorescence intensity (a.u.). With “ACTCCACTCACACTACTGTCACCAACCTTATCTACAAATTCGGAGTCACCTAGTGCAG” the figure was 11200 fluorescence intensity (a.u.); with “CCCTTCATTCCATTTTAAGTGCAGTTATGGGTTTCTTTGTCGGAGTCACCTAGTGCAG”, 9250 fluorescence intensity (a.u.).

For “ACAACAACGATACTCCACCCTCGTTCATAGCGCACCCCTACGGAGTCACCTAGTGCAG”, the binding signal is 8170 fluorescence intensity (a.u.). “TTTTATTTAGCTGTTCTTCTTTTGGATTTACTATCTTTTTCGGAGTCACCTAGTGCAG”: the binding signal is 10300 fluorescence intensity (a.u.). In the case of “AGAGTGGTGTGGGTGTGTGGGCATCTGATTTTTCTCTCCACGGAGTCACCTAGTGCAG”, the binding signal is 11400 fluorescence intensity (a.u.). With “AACTTTCAACTTTTCCGTCACATCGAACTTTTCTACACACCGGAGTCACCTAGTGCAG” the figure was 9860 fluorescence intensity (a.u.); with “CGTCAAGAAAGTTAATATAGTTTGGGGTTTATAATATTTTCGGAGTCACCTAGTGCAG”, 9170 fluorescence intensity (a.u.); with “GATTAAAGTCAAACTACTTCATATTTGACCAAGTTTATAGCGGAGTCACCTAGTGCAG”, 8490 fluorescence intensity (a.u.). With “AGGAGGAAGAAGAAGAGGGGTTGGTTGTTGTTGGCCGGAGCGGAGTCACCTAGTGCAG”, the binding signal is 10200 fluorescence intensity (a.u.). Consider “GGGGTGGGTGCGACTACGACTACGACCTCTTCACCATCGGCGGAGTCACCTAGTGCAG”, for which the binding signal was 9500 fluorescence intensity (a.u.). With “CATTTCTCTATTCAACTTCGCCATCTTGATTAGTCCCTGTCGGAGTCACCTAGTGCAG” the figure was 9480 fluorescence intensity (a.u.); with “ATGAACTCTACAAGTCATTTTGTCGCCATCAGCTTCTTTCCGGAGTCACCTAGTGCAG”, 9360 fluorescence intensity (a.u.); with “ATCACTGCACGCTGACCACTTCTCACCTTCTTTGCTAGTGCGGAGTCACCTAGTGCAG”, 10500 fluorescence intensity (a.u.). With “TTTTAATTTTTTTTCCTTATACATTTCCTTTGCTTTTTTTCGGAGTCACCTAGTGCAG” the figure was 8250 fluorescence intensity (a.u.); with “CCTGCATAACAAACTGCTTTGACTTTTTTCTGACACTTATCGGAGTCACCTAGTGCAG”, 12800 fluorescence intensity (a.u.); with “TCCACTCTACTCTTCGTGTGTCTTTCTCATTCCCACGCTCCGGAGTCACCTAGTGCAG”, 11400 fluorescence intensity (a.u.). Turning to “CCTAATCACCTCGATCATTCGCTACGTTTTTGCTTGTTCACGGAGTCACCTAGTGCAG”, the binding signal was 9200 fluorescence intensity (a.u.).
